Measured values as given in publication PMC8161077.

Amino acid sequences for entries named in this document (tags omitted). A change or cut given only in a name is not applied to a line headed by its entry. Residues count along the entry.
UniProt P98164, residues 26-4655: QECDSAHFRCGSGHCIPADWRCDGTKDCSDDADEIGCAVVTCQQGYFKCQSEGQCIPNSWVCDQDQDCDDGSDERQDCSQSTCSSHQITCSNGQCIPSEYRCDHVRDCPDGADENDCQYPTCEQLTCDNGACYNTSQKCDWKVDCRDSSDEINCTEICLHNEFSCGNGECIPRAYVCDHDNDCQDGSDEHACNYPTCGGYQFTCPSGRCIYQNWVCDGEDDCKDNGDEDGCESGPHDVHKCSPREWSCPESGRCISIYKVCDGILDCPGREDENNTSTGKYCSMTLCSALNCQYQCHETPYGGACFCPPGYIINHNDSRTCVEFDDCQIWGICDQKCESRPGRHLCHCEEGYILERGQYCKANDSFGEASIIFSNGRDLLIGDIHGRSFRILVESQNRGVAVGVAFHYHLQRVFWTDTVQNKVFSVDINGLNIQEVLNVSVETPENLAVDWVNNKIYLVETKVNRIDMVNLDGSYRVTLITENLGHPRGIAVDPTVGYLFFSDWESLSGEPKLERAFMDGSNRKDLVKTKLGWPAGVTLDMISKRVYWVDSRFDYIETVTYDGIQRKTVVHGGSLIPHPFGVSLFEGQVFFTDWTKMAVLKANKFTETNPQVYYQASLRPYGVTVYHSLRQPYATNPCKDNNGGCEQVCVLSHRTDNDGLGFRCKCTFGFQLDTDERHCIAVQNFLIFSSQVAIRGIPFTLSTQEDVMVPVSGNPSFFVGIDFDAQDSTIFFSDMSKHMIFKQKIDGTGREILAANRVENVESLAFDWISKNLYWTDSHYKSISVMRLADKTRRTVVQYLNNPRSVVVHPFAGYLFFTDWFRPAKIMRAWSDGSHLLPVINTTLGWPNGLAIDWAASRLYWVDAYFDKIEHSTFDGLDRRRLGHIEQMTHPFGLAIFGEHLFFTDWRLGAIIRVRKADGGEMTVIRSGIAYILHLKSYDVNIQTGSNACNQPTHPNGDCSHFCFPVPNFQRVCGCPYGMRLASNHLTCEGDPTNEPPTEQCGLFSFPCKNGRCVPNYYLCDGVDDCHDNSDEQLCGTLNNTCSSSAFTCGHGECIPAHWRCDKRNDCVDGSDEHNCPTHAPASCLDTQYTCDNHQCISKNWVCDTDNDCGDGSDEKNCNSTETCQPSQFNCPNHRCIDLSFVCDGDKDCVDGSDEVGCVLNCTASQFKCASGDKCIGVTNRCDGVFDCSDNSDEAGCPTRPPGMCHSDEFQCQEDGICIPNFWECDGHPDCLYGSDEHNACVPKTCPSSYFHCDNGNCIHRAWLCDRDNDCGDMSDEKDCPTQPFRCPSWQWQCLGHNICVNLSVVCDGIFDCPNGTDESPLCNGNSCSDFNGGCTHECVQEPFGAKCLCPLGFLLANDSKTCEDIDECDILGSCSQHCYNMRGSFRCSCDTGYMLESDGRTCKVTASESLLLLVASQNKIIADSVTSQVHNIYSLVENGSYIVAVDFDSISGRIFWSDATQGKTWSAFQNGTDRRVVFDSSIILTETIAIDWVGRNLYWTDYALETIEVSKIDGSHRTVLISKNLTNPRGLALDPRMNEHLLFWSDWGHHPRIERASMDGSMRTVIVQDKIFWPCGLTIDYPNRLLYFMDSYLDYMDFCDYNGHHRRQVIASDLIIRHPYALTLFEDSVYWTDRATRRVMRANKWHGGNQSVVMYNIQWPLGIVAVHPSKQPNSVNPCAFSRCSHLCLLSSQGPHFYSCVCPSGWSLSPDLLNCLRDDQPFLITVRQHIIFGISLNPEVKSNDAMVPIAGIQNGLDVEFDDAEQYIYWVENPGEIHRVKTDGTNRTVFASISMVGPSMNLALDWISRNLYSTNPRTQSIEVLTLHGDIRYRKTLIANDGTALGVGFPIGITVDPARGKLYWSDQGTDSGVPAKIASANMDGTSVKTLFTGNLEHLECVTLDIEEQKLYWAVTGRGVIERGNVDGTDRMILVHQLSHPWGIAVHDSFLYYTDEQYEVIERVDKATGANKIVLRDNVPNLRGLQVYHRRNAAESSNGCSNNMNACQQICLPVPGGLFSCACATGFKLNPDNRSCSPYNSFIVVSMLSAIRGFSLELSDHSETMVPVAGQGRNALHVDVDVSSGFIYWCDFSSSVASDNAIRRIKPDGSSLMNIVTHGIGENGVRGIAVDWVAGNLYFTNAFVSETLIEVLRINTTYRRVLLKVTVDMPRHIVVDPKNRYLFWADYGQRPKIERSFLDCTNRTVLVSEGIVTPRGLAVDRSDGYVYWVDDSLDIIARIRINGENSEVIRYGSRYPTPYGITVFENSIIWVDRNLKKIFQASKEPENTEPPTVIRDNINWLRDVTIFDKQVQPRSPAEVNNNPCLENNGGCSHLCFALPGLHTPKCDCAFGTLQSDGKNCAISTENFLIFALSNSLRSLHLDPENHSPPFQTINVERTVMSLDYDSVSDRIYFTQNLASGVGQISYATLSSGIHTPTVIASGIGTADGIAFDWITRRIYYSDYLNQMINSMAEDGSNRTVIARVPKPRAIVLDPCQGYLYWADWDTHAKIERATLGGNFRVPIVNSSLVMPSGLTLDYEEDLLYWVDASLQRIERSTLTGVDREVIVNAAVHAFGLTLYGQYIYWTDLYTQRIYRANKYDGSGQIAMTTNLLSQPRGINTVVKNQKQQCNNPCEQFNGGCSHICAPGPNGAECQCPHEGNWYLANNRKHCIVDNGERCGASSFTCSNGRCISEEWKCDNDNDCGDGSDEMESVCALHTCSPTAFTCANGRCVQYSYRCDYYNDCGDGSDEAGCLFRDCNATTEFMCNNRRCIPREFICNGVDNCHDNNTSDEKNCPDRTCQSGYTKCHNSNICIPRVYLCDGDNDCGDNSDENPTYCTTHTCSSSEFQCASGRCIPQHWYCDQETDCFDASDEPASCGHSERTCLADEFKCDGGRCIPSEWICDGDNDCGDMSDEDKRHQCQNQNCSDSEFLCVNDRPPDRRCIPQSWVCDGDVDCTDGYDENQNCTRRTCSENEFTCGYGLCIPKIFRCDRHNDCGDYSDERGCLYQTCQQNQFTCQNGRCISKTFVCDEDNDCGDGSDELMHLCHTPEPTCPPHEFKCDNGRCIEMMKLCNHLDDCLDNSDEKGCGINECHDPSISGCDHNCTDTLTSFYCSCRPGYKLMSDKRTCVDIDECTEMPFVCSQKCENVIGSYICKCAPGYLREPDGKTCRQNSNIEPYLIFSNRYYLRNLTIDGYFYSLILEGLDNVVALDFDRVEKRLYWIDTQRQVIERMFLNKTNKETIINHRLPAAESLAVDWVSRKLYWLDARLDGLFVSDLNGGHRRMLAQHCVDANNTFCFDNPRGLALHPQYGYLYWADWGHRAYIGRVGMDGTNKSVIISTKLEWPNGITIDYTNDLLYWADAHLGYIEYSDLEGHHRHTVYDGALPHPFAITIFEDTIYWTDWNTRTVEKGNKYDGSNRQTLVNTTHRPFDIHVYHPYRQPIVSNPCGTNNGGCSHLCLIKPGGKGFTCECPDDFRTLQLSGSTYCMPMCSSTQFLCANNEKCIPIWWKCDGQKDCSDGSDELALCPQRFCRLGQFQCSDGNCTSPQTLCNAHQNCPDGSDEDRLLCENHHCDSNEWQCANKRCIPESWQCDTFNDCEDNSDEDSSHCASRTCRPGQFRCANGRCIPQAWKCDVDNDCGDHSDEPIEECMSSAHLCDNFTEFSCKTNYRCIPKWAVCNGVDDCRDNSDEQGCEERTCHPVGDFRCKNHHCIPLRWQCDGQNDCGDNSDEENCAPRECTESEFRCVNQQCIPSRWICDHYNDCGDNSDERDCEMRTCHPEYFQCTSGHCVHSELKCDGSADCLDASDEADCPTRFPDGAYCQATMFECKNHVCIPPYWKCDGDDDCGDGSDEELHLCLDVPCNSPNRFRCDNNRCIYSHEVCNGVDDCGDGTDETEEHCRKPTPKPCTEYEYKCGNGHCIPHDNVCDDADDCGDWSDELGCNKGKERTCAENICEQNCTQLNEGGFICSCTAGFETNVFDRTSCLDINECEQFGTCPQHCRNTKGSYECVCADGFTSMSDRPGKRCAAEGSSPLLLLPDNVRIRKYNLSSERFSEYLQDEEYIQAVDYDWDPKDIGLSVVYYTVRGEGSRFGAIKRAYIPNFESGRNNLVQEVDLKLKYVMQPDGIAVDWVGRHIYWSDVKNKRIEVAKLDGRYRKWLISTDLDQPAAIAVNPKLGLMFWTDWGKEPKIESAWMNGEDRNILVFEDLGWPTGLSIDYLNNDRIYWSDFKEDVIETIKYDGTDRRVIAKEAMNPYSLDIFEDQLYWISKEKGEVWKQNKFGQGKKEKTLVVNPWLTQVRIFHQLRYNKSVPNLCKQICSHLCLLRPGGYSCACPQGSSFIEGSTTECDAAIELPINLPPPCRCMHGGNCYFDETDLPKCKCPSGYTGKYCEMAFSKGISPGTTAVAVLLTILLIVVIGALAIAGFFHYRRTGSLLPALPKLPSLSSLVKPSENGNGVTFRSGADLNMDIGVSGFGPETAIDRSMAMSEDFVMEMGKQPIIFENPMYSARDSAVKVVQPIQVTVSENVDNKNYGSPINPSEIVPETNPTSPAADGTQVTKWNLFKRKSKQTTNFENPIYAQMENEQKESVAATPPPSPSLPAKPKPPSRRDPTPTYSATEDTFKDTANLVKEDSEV
UniProt P30533: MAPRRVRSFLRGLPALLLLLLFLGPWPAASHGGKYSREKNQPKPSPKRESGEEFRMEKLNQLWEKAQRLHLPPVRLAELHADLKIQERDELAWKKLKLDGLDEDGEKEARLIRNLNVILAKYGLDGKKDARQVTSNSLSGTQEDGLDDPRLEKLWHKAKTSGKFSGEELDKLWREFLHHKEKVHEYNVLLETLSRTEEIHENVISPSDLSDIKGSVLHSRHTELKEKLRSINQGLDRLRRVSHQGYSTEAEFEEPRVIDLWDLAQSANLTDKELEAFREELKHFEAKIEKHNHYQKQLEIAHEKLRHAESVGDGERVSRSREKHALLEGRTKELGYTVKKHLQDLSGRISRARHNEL

Target: megalin (human (endogenous in HK-2)) (UniProt P98164)
Assay: flow cytometry on cells; GST–RAP at 0.5–8 µg/mL (2-fold steps) incubated with HK-2 cells (wild type and OCRL KO) for 1 h on ice; detected with GST antibody conjugated with Alexa-fluor 488; no-ligand control subtracted; one site-specific binding model for Bmax and kd; only the binder purified

## recombinant GST–RAP fusion protein (receptor-associated protein RAP) (from UniProt P30533) (ligand)
  binding: binds

Results are given in words; binding and its absence hold for the method and conditions named. Binding can be weak; no strength is given.
